Laboratory results reported in publication PMC6362833 (ACS chemical neuroscience, 2017).

Key:
[1] = target: AC1 (Homo sapiens, UniProt Q08828); assay: CaM-stimulated AC1 activity in membrane preparations; type: biochemical; settings: read-out: AC1 % inhibition
[2] = target: AC8 (Homo sapiens, UniProt P40145); assay: CaM-stimulated AC8 activity in membrane preparations; type: biochemical

## CC(C)(C)CC(C)(C)c1ccc(OCCOCC[N+](C)(C)Cc2ccccc2)cc1 [benzethonium, Benzethonium chloride]
[1]
  inhibition at 100 µM: 85 ± 1%
[2]
  potency against AC8 compared with AC1: slightly more potent against AC8 than AC1
[2]; read-out: AC8 % inhibition
  inhibition at 100 µM: 100 ± 1%
